# Counter-ions that a name gives are not always drawn. Where a SMILES comes first, the peptide text is derived from it. [ ]: non-standard residue; d: D form. Hyp = O=C(O)[C@@H]1C[C@@H](O)CN1
# Experiment: Metabolomic profiling of blood plasma samples, ALS vs. symptom mimic disease subjects (Tables 5, 9)
# Set-up: species or system human
# Details: blood plasma; ALS mean (172 subjects) vs symptom mimic disease mean (73 subjects); positive = increase in ALS; T-test
row,SMILES,% Change in ALS
1,C[C@H](CCC(=O)O)[C@H]1CC[C@H]2[C@@H]3[C@H](O)C[C@@H]4C[C@H](O)CC[C@]4(C)[C@H]3C[C@H](O)[C@]12C [cholate],14%
2,CC(C)CCC[C@@H](C)[C@H]1CC[C@H]2[C@@H]3CC=C4C[C@@H](O)CC[C@]4(C)[C@H]3CC[C@]12C [cholesterol],5%
3,"CCCCCC/C=C\CCCCCCCCCC(=O)O [cis-vaccenate (18:1n7), cis-vaccenate]",15%
4,C[C@]12CCC(=O)C=C1CC[C@@H]1[C@@H]2[C@@H](O)C[C@@]2(C)[C@H]1CC[C@]2(O)C(=O)CO [cortisol],8%
5,CN1C(=O)CC[C@H]1c1cccnc1 [cotinine],92%
6,CC(C)C[C@@H]1NC(=O)[C@@H]2CCCN2C1=O [cyclo(leu-pro)],8%
7,CCCCCCCCCC(=O)O[C@H](CC(=O)[O-])C[N+](C)(C)C [decanoylcarnitine],−8%
8,Cc1cc(O)cc2c1O[C@](C)(CCC[C@H](C)CCC[C@H](C)CCCC(C)C)CC2 [delta-tocopherol],−98%
9,C[N+](C)(C)CCCC(=O)[O-] [deoxycarnitine],−10%
10,"CCCCC/C=C\C/C=C\CCCCCCCCCC(=O)O [dihomo-linoleate (20:2n6), dihomo-linoleate]",20%
11,CN(C)CC(=O)O [dimethylglycine],10%
12,"CCCCC/C=C\C/C=C\CCCCCCCCCCCC(=O)O [docosadienoate (22:2n6), docosadienoate]",15%
13,O=C(O)CCCCCCCCCCC(=O)O [dodecanedioate],8%
14,OC[C@@H](O)[C@@H](O)CO [erythritol],−207%
15,CCCCCCCCCCCCC/C=C/[C@@H](O)[C@@H](N)COP(=O)(O)O [erythro-sphingosine-1-phosphate],−6%
16,O=C(CO)[C@H](O)CO [erythrulose],10%
17,O=C(CO)[C@@H](O)[C@H](O)[C@H](O)CO [fructose],−31%
18,O=C(O)/C=C/C(=O)O [fumarate],6%
19,Cc1c(O)cc2c(c1C)OC(C)(CCC(=O)O)CC2 (stereo not shown) [gamma-CEHC],−10%
20,C[C@H](NC(=O)CC[C@H](N)C(=O)O)C(=O)O [gamma-glutamylalanine],−6%
21,CC[C@H](C)[C@H](NC(=O)CC[C@H](N)C(=O)O)C(=O)O [gamma-glutamylisoleucine],19%
22,CC(C)C[C@H](NC(=O)CC[C@H](N)C(=O)O)C(=O)O [gamma-glutamylleucine],14%
23,CSCC[C@H](NC(=O)CC[C@H](N)C(=O)O)C(=O)O [gamma-glutamylmethionine],5%
24,CC(C)[C@H](NC(=O)CC[C@H](N)C(=O)O)C(=O)O [gamma-glutamylvaline],28%

row,SMILES,% Change in ALS
1,Cc1c(O)cc2c(c1C)O[C@](C)(CCC[C@H](C)CCC[C@H](C)CCCC(C)C)CC2 [gamma-tocopherol],−17%
2,"O=P(O)(O)OCC(O)CO (stereo not shown) [glycerol 3-phosphate (G3P), glycerol 3-phosphate]",6%
3,OCC(O)CO [glycerol],9%
4,NCC(=O)O [glycine],6%
5,C[C@H](CCC(=O)NCC(=O)O)[C@H]1CC[C@H]2[C@@H]3[C@H](O)C[C@@H]4C[C@H](O)CC[C@]4(C)[C@H]3C[C@H](O)[C@]12C [glycocholate],−30%
6,C[C@H](CCC(=O)NCC(=O)O)[C@H]1CC[C@H]2[C@@H]3CC[C@@H]4C[C@H](O)CC[C@]4(C)[C@H]3C[C@H](O)[C@]12C [glycodeoxycholate],−22%
7,C[C@H](CCC(=O)NCC(=O)O)[C@H]1CC[C@H]2[C@@H]3CC[C@@H]4C[C@H](OS(=O)(=O)O)CC[C@]4(C)[C@H]3CC[C@]12C [glycolithocholate sulfate],11%
8,C[C@H](CCC(=O)NCC(=O)O)[C@H]1CC[C@H]2[C@@H]3[C@@H](O)C[C@@H]4C[C@H](O)CC[C@]4(C)[C@H]3CC[C@]12C [glycoursodeoxycholate],8%
9,C=CC1=C(C)c2cc3[n-]c(cc4[n-]c(cc5nc(cc1n2)C(C)=C5C=C)c(C)c4CCC(=O)O)c(CCC(=O)O)c3C.[Fe+2] [heme],−5%
10,CCCCCC(=O)OC(CC(=O)O)C[N+](C)(C)C.[Cl-] (stereo not shown) [hexanoylcarnitine],8%
11,O=C(O)C(O)Cc1c[nH]c2ccccc12 (stereo not shown) [indolelactate],−16%
12,CC(C)C(=O)O[C@H](CC(=O)[O-])C[N+](C)(C)C [isobutyrylcarnitine],−14%
13,CC(C)CC(=O)O[C@H](CC(=O)[O-])C[N+](C)(C)C [isovalerylcarnitine],−8%
14,CC(O)C(=O)O (stereo not shown) [lactate],−5%
15,CC(C)CCC[C@@H](C)[C@H]1CC[C@H]2C3=CC[C@H]4C[C@@H](O)CC[C@]4(C)[C@H]3CC[C@]12C [lathosterol],14%
16,"CCCCCCCCCCCC(=O)O [laurate (12:0), laurate]",−8%
17,CCCCCCCCCCCC(=O)O[C@H](CC(=O)[O-])C[N+](C)(C)C [laurylcarnitine],−6%
18,OC[C@@H](O)[C@@H](O)[C@H](O)[C@H](O)CO [mannitol],−136%
19,"CCCCCCCCCCCCCCCCC(=O)O [margarate (17:0), margarate]",11%
20,"CCCCCCCCCCCCCCCC(=O)OC [methyl palmitate (15 or 2), methyl palmitate]",5%
21,COP(=O)(O)O [methylphosphate],6%
22,"CCCCCCCCCCCCCCCCCCC(=O)O [nonadecanoate (19:0), nonadecanoate]",11%
23,CCCCCCCC(=O)O[C@H](CC(=O)O)C[N+](C)(C)C [octanoylcarnitine],−9%
24,CCCCCCCC/C=C\CCCCCCCC(=O)O[C@H](CC(=O)[O-])C[N+](C)(C)C [oleoylcarnitine],8%

row,SMILES,% Change in ALS
1,"O=C(O)C(=O)O [oxalate (ethanedioate), ethanedioate]",−6%
2,Cn1c(=O)[nH]c2ncn(C)c2c1=O [paraxanthine],−17.36%
3,"CCCCCCCCCCCCCCC(=O)O [pentadecanoate (15:0), pentadecanoate]",12%
4,O=S(=O)(O)Oc1ccccc1 [phenol sulfate],9%
5,O=C(O)C1CCCCN1 (stereo not shown) [pipecolate],−13%
6,"O=C(O)[C@@H]1C[C@@H](O)CN1C(=O)[C@@H]1CCCN1 [pro-hydroxy-pro, prolylhydroxyproline] (H-Pro-[Hyp]-OH)",11%
7,Cc1ncc(CO)c(C(=O)O)c1O [pyridoxate],−62%
8,O=C(O)[C@]1(O)C[C@@H](O)[C@@H](O)[C@H](O)C1 [quinate],−22%
9,O=C1NS(=O)(=O)c2ccccc21 [saccharin],−75%
10,"CNCC(=O)O [sarcosine (N-Methylglycine), N-Methylglycine]",30%
11,"O=C(O)CCCCCCCCC(=O)O [sebacate (decanedioate), decanedioate]",8%
12,N[C@@H](CO)C(=O)O [serine],11%
13,"CC/C=C\C/C=C\C/C=C\C/C=C\CCCCC(=O)O [stearidonate (18:4n3), stearidonate]",10%
14,C[N+](C)(C)C[C@@H](CC(=O)[O-])OC(=O)CCC(=O)O [succinylcarnitine],−8%
15,C[C@H](CCC(=O)NCCS(=O)(=O)O)[C@H]1CC[C@H]2[C@@H]3CC[C@@H]4C[C@H](O)CC[C@]4(C)[C@H]3C[C@H](O)[C@]12C [taurodeoxycholate],−25%
16,C[C@H](CCC(=O)NCCS(=O)(=O)O)[C@H]1CC[C@H]2[C@@H]3CC[C@@H]4C[C@H](OS(=O)(=O)O)CC[C@]4(C)[C@H]3CC[C@]12C [taurolithocholate 3-sulfate],12%
17,O=C(O)CCCCCCCCCCCCC(=O)O [tetradecanedioate],15%
18,Cn1cnc2c1c(=O)[nH]c(=O)n2C [theobromine],−43%
19,Cn1c(=O)c2[nH]cnc2n(C)c1=O [theophylline],−30%
20,OC[C@@H](O)[C@H](O)CO [threitol],−18%
21,Cc1ccc(C(C)C)c(OS(=O)(=O)O)c1 [thymol sulfate],−17%
22,C/C=C(\C)C(=O)O[C@H](CC(=O)[O-])C[N+](C)(C)C [tiglyl carnitine],−7%
23,C[N+](C)(C)[C@@H](Cc1c[nH]c2ccccc12)C(=O)[O-] [tryptophan betaine],−18%
24,Oc1nc(O)c2nc(O)[nH]c2n1 [urate],−7.41% ^

# Same assay, conditions: plasma; ALS patients relative to symptom mimic disease patients; Random Forest and/or Wilcoxon (FDR < 0.15)
row,SMILES,Direction of change in ALS
1,CC(C)CCC[C@@H](C)[C@H]1CC[C@H]2[C@@H]3CC=C4C[C@@H](O)CC[C@]4(C)[C@H]3CC[C@]12C [cholesterol],Higher
2,Cc1cc(O)cc2c1O[C@](C)(CCC[C@H](C)CCC[C@H](C)CCCC(C)C)CC2 [delta-tocopherol],Lower
3,O=C(O)CCCCCCCCCCC(=O)O [dodecanedioate],Higher
4,Cn1c(=O)[nH]c2ncn(C)c2c1=O [paraxanthine],Lower
5,"O=C(O)[C@@H]1C[C@@H](O)CN1C(=O)[C@@H]1CCCN1 [pro-hydroxy-pro, prolylhydroxyproline] (H-Pro-[Hyp]-OH)",Higher
6,N[C@@H](CO)C(=O)O [serine],Higher
7,Oc1nc(O)c2nc(O)[nH]c2n1 [urate],Lower

# From patent publication US20140303228A1, “Biomarkers for Amyotrophic Lateral Sclerosis and Methods Using the Same” (METABOLON, INC., priority 2011, published 2014)
